PubChem BioAssay AID504804 | Drosophila RNAi Screening Center | 2011

- Assay: 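Fly genes whose loss lessens doxorubicin-driven cell death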 (primary screen)
- Cell system: Drosophila Kc cells
- Reagents: long dsRNA against Drosophila genes, 0.5 µg dsRNA per well
- Time to read-out: 96 h (48 h knock-down, then 48 h drug)
- Conditions: doxorubicin 5 µg/ml for 48 h, added 48 h after dsRNA
- Measurement: 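Viability measured as cellular ATP by luminescence after 48 h knock-down then 48 h doxorubicin at 5 µg/ml; unnormalised plate counts for each replicate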
- Reading the numbers: raw ATP luminescence: higher = more viable cells, protection from doxorubicin
- Rule for the call: 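z-score of 2 or more over plate mean in both duplicates, retained only when retests and separate dsRNAs confirm the protection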
In all, the deposit lists about 19,000 reagents; shown is an unselected part of those with a known target gene and a result. Over the whole deposit, 47 (0.25%) were called active. 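Signals are raw, not normalised; exact z-scores behind calls not deposited; actives needed confirmation, so some wells reaching 2 SD are inactive.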 Entries without a mark were called inactive. Reagents against one gene are numbered here. A plus sign joins genes that one reagent is predicted to hit. No sequences are given here.

no.	gene knocked down	reagent no.	SD above plate mean	raw ATP luminescence, replicate 1	raw ATP luminescence, replicate 2
1	CG14778	1		45440	53600
2	CG10151	1		58563	49180
3	tomboy20	1		60347	69040
4	CG4942	1		66273	40987
5	5-HT2B (5-hydroxytryptamine (serotonin) receptor 2B)	1		61347	62110
6	5-HT2B (5-hydroxytryptamine (serotonin) receptor 2B)	2		51987	60033
7	CG15199	1		4.05e5	3.42e5
8	FASN2 (Fatty acid synthase 2)	1		2.64e5	2.35e5
9	FASN2 (Fatty acid synthase 2)	2		94573	80050
10	tsr (twinstar)	1		48410	51187
11	CG42564	1		60453	60790
12	robo2 (roundabout 2)	1		1.05e5	51927
13	Tsp26A (Tetraspanin 26A)	1		28590	32797
14	Gss1 + Gss2	1		3.59e5	3.13e5
15	CG11779	1		31477	48030
16	Ir76a (Ionotropic receptor 76a)	1		23230	19033
17	CG12206	1		45590	41440
18	CG4998	1		78237	69000
19	CG6415	1		71307	48613
20	CG17764	1		24680	24390
21	Prtl99C (Protamine-like 99C)	1		55330	46750
22	CG12343	1		36423	77520
23	Nhe3 (Na[+]/H[+] hydrogen exchanger 3)	1		44423	46570
24	E(spl)malpha-BFM (Enhancer of split malpha, Bearded family member)	1		58810	63330
25	CG14422	1		51260	24330
26	CG32687	1		3.79e5	3.37e5
27	CG32687	2		3.13e5	2.97e5
28	CG14151	1		76030	68607
29	Dok (Downstream of kinase)	1		22190	24870
30	CG9393	1		47293	28803
31	CG14205	1		3.36e5	3.01e5
32	ry (rosy)	1		45730	21253
33	CG14764	1		87917	82867
34	CG14764	2		54133	40500
35	CG14764	3		51667	75027
36	Ada3 (transcriptional Adaptor 3)	1		3.54e5	3.18e5
37	Ada3 (transcriptional Adaptor 3)	2		3.79e5	3.17e5
38	CG6652	1		26077	23920
39	CG31274 + MESK4	1		1.97e5	2.09e5
40	LeuRS (Leucyl-tRNA synthetase)	1		22090	25870
41	CG17778	1		51440	43430
42	Vamp7 (Vesicle-associated membrane protein 7)	1		39637	68567
43	Ugt49B2 (UDP-glycosyltransferase family 49 member B2)	1		38180	47870
44	Amph (Amphiphysin)	1		59320	56083
45	gkt (glaikit)	1		25460	30467
46	Vps16B (Vacuolar protein sorting 16B)	1		67210	42850
47	hoka	1		81923	1.02e5
48	CG3984	1		1.11e5	74920
49	CG10477	1		70710	69150
50	CG13856	1		61330	51140
51	CG12768	1		51430	47237
52	Drgx (Dorsal root ganglia homeobox)	1		23620	30693
53	Drgx (Dorsal root ganglia homeobox)	2		21453	26240
54	CG12111	1		54920	57140
55	CG16865	1		70093	74580

Next part; the last 10 above are carried over.
no.	gene knocked down	reagent no.	SD above plate mean	raw ATP luminescence, replicate 1	raw ATP luminescence, replicate 2
46	Vps16B (Vacuolar protein sorting 16B)	1		67210	42850
47	hoka	1		81923	1.02e5
48	CG3984	1		1.11e5	74920
49	CG10477	1		70710	69150
50	CG13856	1		61330	51140
51	CG12768	1		51430	47237
52	Drgx (Dorsal root ganglia homeobox)	1		23620	30693
53	Drgx (Dorsal root ganglia homeobox)	2		21453	26240
54	CG12111	1		54920	57140
55	CG16865	1		70093	74580
56	Lgr4 (Leucine-rich repeat-containing G protein-coupled receptor 4)	1		2.34e5	1.96e5
57	Lgr4 (Leucine-rich repeat-containing G protein-coupled receptor 4)	2		2.36e5	3.48e5
58	Lgr4 (Leucine-rich repeat-containing G protein-coupled receptor 4)	3		3.88e5	2.84e5
59	CG13050	1		50457	36397
60	Arc1 (Activity-regulated cytoskeleton associated protein 1)	1	at least 3 SD above plate mean	1.14e5	1.03e5
61	Pal1 (Peptidyl-alpha-hydroxyglycine-alpha-amidating lyase 1)	1		62783	57190
62	Irbp (Inverted repeat-binding protein)	1		56593	53443
63	CG14731	1		51970	53693
64	CG31688	1		59120	70767
65	BckdhB (Branched chain keto acid dehydrogenase E1 subunit beta)	1		3.30e5	3.08e5
66	CG16978	1		76573	74997
67	ana1 (anastral spindle 1)	1		38713	52687
68	Spn (Spinophilin)	1		1.70e5	1.14e5
69	Spn (Spinophilin)	2		62027	68657
70	LRP1 (LDL receptor protein 1)	1		56507	74203
71	CG7016	1		62310	62050
72	CG33080	1		33320	37900
73	CG33080	2		41710	46730
74	CG33080	3		37310	54910
75	CG31178	1		53750	53500
76	CG4053	1		76260	79290
77	MCPH1 (Microcephalin)	1		44847	40927
78	CG5770	1		59463	63727
79	mRF1 (mitochondrial translation release factor 1)	1		86630	63007
80	Lapsyn (Leucine-rich repeat activity-regulated protein at synapses)	1		74137	71093
81	Rchy1 (Ring finger and CHY zinc finger domain containing 1)	1		18850	18090
82	CG13308	1		75877	84763
83	lectin-46Ca	1		68340	63897
84	CG6805	1		68627	69143
85	CG13065	1		52157	28490
86	CG15772	1		36550	44890
87	CG15059	1		3.89e5	2.48e5
88	CG8372	1		1.05e5	50950
89	CG12209	1		53020	71400
90	CG7884	1		3.33e5	3.25e5
91	Kcmf1 (Potassium channel modulatory factor 1)	1		78707	28953
92	CG4653	1		2.19e5	2.01e5
93	Neos (Neosin)	1		55970	41443
94	CG16782	1		63540	54250
95	Pka-C2 (Protein kinase, cAMP-dependent, catalytic subunit 2)	1		49850	39420
96	RapGAP1 (Rap GTPase activating protein 1)	1		25233	25080
97	RapGAP1 (Rap GTPase activating protein 1)	2		23433	22887
98	RapGAP1 (Rap GTPase activating protein 1)	3		97193	62187
99	CG30379	1		88430	90370
100	CG42346	1		3.06e5	2.86e5
101	CG42346	2		2.46e5	2.74e5
102	RpLP0-like (Ribosomal protein LP0-like)	1		76830	41920
103	CG13407	1		66520	73490
104	l(2)k05819 (lethal (2) k05819)	1		1.16e5	68400
105	PK2-R2 (Pyrokinin 2 receptor 2)	1		88910	88140
106	BicD (Bicaudal D)	1		85897	71000
107	Obp99b (Odorant-binding protein 99b)	1		39160	34160
